These are yes or no findings as the source states them, for the method shown. In cells and extracts the contact can be indirect. A yes stands for co-enrichment or nearness to the bait. Other partners may have been found.

Sequences of proteins named here, by UniProt entry; tags and fusion partners are left off. Residues count along the entry.
UniProt O14763, residues 56-440: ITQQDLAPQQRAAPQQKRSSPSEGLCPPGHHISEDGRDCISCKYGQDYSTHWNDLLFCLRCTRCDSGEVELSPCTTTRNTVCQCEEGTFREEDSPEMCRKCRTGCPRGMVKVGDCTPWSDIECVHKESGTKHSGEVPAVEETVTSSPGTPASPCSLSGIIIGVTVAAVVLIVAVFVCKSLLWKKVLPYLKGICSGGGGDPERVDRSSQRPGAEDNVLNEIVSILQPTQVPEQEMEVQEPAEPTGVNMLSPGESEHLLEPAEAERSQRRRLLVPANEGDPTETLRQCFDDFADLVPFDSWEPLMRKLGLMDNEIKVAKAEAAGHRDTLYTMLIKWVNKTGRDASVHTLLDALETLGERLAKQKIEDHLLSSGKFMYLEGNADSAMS
UniProt Q15545: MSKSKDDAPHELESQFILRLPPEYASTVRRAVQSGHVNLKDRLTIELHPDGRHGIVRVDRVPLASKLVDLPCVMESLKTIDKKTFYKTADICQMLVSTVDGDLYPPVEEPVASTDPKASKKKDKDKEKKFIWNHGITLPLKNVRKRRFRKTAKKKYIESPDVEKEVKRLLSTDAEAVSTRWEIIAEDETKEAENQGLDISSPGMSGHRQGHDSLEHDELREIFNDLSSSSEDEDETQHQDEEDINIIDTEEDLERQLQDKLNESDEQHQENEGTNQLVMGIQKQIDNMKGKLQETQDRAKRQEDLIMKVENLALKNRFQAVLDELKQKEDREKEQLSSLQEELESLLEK
UniProt Q16594: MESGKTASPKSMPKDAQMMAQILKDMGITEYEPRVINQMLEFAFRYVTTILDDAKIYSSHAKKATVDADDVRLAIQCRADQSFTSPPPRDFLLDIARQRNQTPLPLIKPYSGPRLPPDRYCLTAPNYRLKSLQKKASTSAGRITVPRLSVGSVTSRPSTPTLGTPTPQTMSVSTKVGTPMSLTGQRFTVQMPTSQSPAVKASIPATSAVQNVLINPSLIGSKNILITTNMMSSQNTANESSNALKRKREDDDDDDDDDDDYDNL
UniProt O00268: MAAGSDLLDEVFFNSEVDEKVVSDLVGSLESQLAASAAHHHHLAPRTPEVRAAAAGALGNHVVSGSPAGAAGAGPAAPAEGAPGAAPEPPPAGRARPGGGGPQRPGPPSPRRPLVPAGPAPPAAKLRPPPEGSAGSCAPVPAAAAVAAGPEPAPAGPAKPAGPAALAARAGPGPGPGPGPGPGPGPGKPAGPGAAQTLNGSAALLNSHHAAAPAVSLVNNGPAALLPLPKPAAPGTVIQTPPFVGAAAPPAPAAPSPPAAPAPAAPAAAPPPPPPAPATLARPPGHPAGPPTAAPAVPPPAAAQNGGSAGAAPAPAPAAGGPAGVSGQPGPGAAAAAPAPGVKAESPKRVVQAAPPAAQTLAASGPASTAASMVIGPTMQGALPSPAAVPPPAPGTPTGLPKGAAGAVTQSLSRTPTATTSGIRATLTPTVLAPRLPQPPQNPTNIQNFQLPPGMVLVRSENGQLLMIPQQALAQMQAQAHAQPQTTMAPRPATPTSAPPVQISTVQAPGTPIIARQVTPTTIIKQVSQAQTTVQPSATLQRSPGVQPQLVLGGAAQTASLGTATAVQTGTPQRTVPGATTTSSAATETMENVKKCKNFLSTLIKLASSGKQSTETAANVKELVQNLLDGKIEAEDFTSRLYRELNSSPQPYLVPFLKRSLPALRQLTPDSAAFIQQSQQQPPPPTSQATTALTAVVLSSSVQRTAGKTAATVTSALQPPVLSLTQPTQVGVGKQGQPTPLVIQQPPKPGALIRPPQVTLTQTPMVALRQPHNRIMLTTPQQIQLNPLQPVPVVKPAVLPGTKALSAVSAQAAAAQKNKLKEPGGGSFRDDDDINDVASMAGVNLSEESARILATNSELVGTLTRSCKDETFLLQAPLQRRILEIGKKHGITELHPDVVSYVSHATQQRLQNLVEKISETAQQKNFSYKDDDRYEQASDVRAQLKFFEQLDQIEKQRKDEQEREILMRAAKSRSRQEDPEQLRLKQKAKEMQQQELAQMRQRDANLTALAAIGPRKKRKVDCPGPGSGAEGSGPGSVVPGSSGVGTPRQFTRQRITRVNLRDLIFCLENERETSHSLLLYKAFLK

The test concerns the target death receptor 5 (DR5) (human (endogenous in CCD 841 CoN)) (UniProt O14763). Nature of the test: affinity purification with mass spectrometry; CCD 841 CoN cells lysed in Pierce IP lysis buffer; supernatant immunoprecipitated with anti-DR5 antibody (4 h, 4 °C), then Protein A/G Agarose overnight at 4 °C; precipitate digested for LC-MS/MS.
Consider TAF7 (from UniProt Q15545 1-349), for which the binding result was “binds”.

As to TAF9 (from UniProt Q16594 1-264), the binding entry is reported as “binds”. To “TBP-related factor 4 (TAF4) (from UniProt O00268 1-1085)” belongs “binds”.

(Values after article PMC12866826.)
